In PubChem BioAssay AID687031 (Broad Institute, 2013):
Screen size: about 1,400 compounds; about 50 (4%) were called active.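 Rule for the calls: active = fitted curve reaches 30% CPE protection at or below the top valid dose, with every test run called active; inconclusive = test runs disagree, some active and some not; inactive = every test run inactive, including effects in the wrong direction.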 The list shows a part of the results. Results with a measured potency or affinity are listed apart.

Assay: Dengue virus 2 cytopathic effect protection, dose response, BHK-21 cells, ATP luminescence, cherry-pick (AID 687031);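 note: 0% = infected DMSO wells and 100% = uninfected cell wells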
Settings: BHK-21 DENV2 CPE protection, 5 d; at 19.5 µM (top of the series) unless noted

CPE protection (higher = active), inactive:
C/C=C/c1ccc([C@H]2[C@@H](CO)N(C(=O)C3CC3)C23CN(C(=O)NC(C)C)C3)cc1 7.97%
O=C(CN1CCN(C(c2ccccc2)c2ccccc2)CC1)N1CCOCC1 27.7%
CCN(CC)S(=O)(=O)c1ccc(N2CCOCC2)c(NC(=O)c2ccccc2)c1 -1.8%
COc1ccc(NC(=O)Nc2cccc3c2O[C@H](CN(C)S(=O)(=O)c2ccccc2)[C@H](C)CN([C@@H](C)CO)C3=O)cc1 -0.618% [at 21 µM]
COC(=O)c1c(-c2ccc(OC)cc2)sc2cc3c(cc12)OCO3 -6.57%
CCOC(=O)c1sc(NC(=O)c2ccncc2)c(C#N)c1C 3.38%
O=C(CCNC(=O)OCC1c2ccccc2-c2ccccc21)NOCc1ccccc1 -0.354%
CN1CCN(S(=O)(=O)c2cccs2)CC1 18.8%
C[C@@H]1CCCCO[C@H](CN(C)S(=O)(=O)c2ccccc2)[C@@H](C)CN([C@H](C)CO)C(=O)c2cc(NC(=O)Nc3ccc4c(c3)OCO4)ccc2O1 -47.5%
O=C(c1cccc(Cl)c1)N1CCC2(CC1)NCCc1[nH]cnc12 4.28%
O=C(COc1ccc(-c2nnco2)cc1)NCc1ccccc1Cl -5.13%
Cc1nc2ccccc2c(=O)n1-c1ccc(NS(=O)(=O)c2ccccc2)cc1 2.65%
CCc1nnc(NC(=O)c2ccc(F)c(S(=O)(=O)N3CCCCC3)c2)s1 -19.2%
COc1ccc(CC(=O)Nc2ccc(C)c(S(=O)(=O)N3CCCCCC3)c2)cc1 -11.9%
O=C(NCc1cccs1)c1cccc(Nc2nc3ccc(Br)cc3[nH]2)c1 -1.49%
Cc1ccccc1-c1cnc(C(O)c2cccc(C)c2C)[nH]1 (configuration not stated) 8.04%
Cc1ccc(OCCCCNC(C)c2ccccc2)c(C)c1 (configuration not stated) 0.335%
O=C(CNc1cccc(S(=O)(=O)N2CCOCC2)c1)Nc1cccc(Br)c1 17.6% [at 10 µM]
C[C@@H]1CCCCO[C@@H](CN(C)C(=O)CCC(F)(F)F)[C@@H](C)CN([C@@H](C)CO)C(=O)c2cc(NC(=O)c3ccccc3)ccc2O1 -2.11%
C[C@@H]1CN([C@H](C)CO)C(=O)c2cc(NC(=O)c3ccncc3)ccc2O[C@@H](C)CCCCO[C@H]1CN(C)C -9.3%
C[C@@H]1CN([C@@H](C)CO)S(=O)(=O)c2ccc(-c3ccncc3)cc2O[C@H]1CN(C)C(=O)CC1CC1 -17.1%
CCOC(=O)C1=C(C)NC(=O)NC1c1ccc(N(C)C)cc1 (configuration not stated) -0.681%
Cc1[nH]c(=O)c(C#N)c(C)c1CCC(=O)NCc1cccc(C(F)(F)F)c1 8.95%
Cc1noc(C)c1NC(=O)N(C)C[C@@H]1Oc2c(NS(=O)(=O)c3ccccc3)cccc2C(=O)N([C@@H](C)CO)C[C@@H]1C 1.59%
Cc1ccc2c(c1)c1c(n2CC(O)CNC2CCCC2)CCCC1 (configuration not stated) 1.74%
CN1CCCC1CCNc1ccc2sc3ccccc3c(=O)c2c1 (configuration not stated) 0.552%
CCC(C)(C)C1CCc2[nH]nc(C(=O)NCc3ccccn3)c2C1 (configuration not stated) 13.8% [at 10 µM]
CCN(CC)CCCC(C)Nc1nccc2c(Cl)cccc12 (configuration not stated) -3.08%
Cc1nnc(NC(=O)CCn2c(=O)oc3ccc(Cl)cc32)s1 -9.55%
COc1ccc(Cl)cc1-c1cc(C(=O)N[C@H](C)c2ccccc2)[nH]n1 -10.9%
O=C1NC(Cc2ccc(O)cc2)c2nc3ccccc3c(=O)n2-c2ccccc21 (configuration not stated) -12.7%
COC(=O)[C@]12CCCCC=C1N(Cc1cccc3ccccc13)C(=O)[C@H](CC(=O)NCCC(C)C)C2 -12.2%
ClC(CCN1CCN(Cc2ccccc2)CC1)c1ccccc1 (configuration not stated) 0.446%
CCCCN1C[C@H](Cc2ccccc2)[C@@H](CC(=O)Nc2ccccc2)C1=O -14.4%
C[C@@H]1CN([C@@H](C)CO)C(=O)c2cc(C#CCc3ccccc3)cnc2O[C@@H]1CN(C)C(=O)C1CCOCC1 11.9%
CC(=O)OCCCN(C)CC/C=C1/c2ccccc2CSc2ccccc21 -18.2%
COc1ccc(NC(=O)c2c(F)cccc2F)cc1S(=O)(=O)Nc1ccc(Br)cc1 10.9%
COCCCNc1oc(-c2ccccc2F)nc1C#N -5.4%
CC1CCN(C(=O)COC(=O)c2cc3ccccc3oc2=O)CC1 29.4%
O=C(c1ccncc1)N1CCCC(N2CCN(c3cccc(C(F)(F)F)c3)CC2)C1 (configuration not stated) 22.6%
C[C@@H]1CCCCO[C@@H](CN(C)C(=O)Cc2ccccc2)[C@H](C)CN([C@H](C)CO)C(=O)c2cc(NS(=O)(=O)c3ccc(Cl)cc3)ccc2O1 -11.9%
COc1ccccc1-c1noc2c1C(=O)N(Cc1cn(Cc3ccccc3)nn1)CC2 6.91%
CC12CCC(=O)N1C(C(=O)Nc1ccc(S(=O)(=O)N3CCCCC3)cc1)CS2 (configuration not stated) 9.93%
CCc1ccc2c(F)cccc2n1 -10.3%
COc1ccc2c3c(n(C)c2c1)[C@@H](CO)N(Cc1ccc(F)cc1)CC31CN(CC2CCOCC2)C1 12.6%
O=C(NCC1CCCCC1)[C@@H]1[C@@H](CO)[C@@H]2Cn3c(cccc3=O)[C@H]1N2CCc1ccccc1 4.12%
CCOC(=O)C1=C(C)NC(=O)C(C#N)C1c1ccncc1 (configuration not stated) -19.2%
CN1[C@@H]2Cn3c(ccc(C4=CCCC4)c3=O)[C@H]1[C@@H](C(=O)N1CCCCC1)[C@@H]2CO 21.2%
Clc1ccc2nc(C3CCCCC3)c(CC3CCCCC3)n2c1 -12.1%
CC1=CC(C)(C)Nc2ccccc21 3.47%
COc1ccc(C2=Nn3c(nnc3-c3ccccc3OC)SC2)cc1OCC1CC1 -3.44%
O=C(Nc1ccc(Cc2ccncc2)cc1)c1cccs1 35.7%

Arranged by molar mass (rising): part of the list above.
CPE protection (higher = active), inactive:
COc1ccccc1-c1noc2c1C(=O)N(Cc1cn(Cc3ccccc3)nn1)CC2 6.91%
COc1ccc(CC(=O)Nc2ccc(C)c(S(=O)(=O)N3CCCCCC3)c2)cc1 -11.9%
O=C(CNc1cccc(S(=O)(=O)N2CCOCC2)c1)Nc1cccc(Br)c1 17.6% [at 10 µM]
